Results as given in PMC5324308.
These are yes or no findings as the source states them, for the method shown. In cells and extracts the contact can be indirect. Some entries that bind do so weakly or less than the wild type.

Chains of the proteins cited; added tags and fusions are not shown.
UniProt Q9Z148: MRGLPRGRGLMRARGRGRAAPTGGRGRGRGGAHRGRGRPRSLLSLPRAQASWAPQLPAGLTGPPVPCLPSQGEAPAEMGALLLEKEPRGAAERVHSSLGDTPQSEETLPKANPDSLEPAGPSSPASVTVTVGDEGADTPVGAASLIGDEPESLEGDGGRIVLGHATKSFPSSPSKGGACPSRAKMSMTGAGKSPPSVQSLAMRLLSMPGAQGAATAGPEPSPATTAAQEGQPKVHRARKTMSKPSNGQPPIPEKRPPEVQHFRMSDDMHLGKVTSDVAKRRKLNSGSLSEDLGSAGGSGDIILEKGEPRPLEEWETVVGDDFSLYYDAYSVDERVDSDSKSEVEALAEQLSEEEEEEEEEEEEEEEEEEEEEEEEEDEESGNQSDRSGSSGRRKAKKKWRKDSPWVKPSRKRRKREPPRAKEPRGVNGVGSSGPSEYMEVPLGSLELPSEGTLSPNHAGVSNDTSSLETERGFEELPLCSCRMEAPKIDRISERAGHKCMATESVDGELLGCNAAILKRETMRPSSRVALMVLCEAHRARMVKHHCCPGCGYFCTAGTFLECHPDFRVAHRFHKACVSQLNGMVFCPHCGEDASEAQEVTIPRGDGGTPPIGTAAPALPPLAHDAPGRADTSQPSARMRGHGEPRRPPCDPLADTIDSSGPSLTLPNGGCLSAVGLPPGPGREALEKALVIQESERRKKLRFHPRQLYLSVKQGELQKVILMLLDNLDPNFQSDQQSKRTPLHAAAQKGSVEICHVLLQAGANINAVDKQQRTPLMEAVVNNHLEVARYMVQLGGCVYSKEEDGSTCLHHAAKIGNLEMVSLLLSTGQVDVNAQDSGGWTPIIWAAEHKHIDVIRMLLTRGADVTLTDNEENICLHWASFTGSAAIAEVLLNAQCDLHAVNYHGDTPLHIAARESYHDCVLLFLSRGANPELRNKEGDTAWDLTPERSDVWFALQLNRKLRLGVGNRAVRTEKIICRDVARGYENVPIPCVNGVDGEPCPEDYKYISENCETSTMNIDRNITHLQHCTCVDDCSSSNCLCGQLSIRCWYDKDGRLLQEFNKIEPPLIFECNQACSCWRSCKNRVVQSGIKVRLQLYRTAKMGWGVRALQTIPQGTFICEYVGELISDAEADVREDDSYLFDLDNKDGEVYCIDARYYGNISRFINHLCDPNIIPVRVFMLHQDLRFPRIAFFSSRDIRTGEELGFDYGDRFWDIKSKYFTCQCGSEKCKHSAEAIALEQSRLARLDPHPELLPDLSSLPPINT
UniProt Q61686: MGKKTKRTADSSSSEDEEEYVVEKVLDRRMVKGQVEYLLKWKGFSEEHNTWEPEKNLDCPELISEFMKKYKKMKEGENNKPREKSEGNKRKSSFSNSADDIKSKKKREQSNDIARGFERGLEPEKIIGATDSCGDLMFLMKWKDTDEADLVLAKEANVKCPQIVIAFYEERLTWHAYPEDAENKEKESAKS

Molecular target: T1, FLBIO-SMYD5 (biotinylated SMYD5 + BirA) (mouse) (UniProt Q3TYX3)
T1 sequence (chain, biotin (biotinylated in cells by BirA)): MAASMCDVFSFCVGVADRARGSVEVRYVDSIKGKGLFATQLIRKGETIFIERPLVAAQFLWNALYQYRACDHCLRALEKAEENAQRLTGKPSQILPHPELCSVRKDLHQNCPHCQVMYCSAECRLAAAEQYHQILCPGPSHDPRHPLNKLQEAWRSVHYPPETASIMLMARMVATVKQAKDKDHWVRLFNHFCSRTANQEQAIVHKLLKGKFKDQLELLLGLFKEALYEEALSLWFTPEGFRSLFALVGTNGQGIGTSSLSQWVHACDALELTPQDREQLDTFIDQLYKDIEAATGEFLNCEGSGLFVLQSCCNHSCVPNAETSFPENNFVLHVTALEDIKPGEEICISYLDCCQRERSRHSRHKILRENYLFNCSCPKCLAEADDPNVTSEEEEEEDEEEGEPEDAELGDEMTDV
Assay: co-IP; FLBIO-SMYD5 (biotinylated SMYD5 + BirA) ES cells or BirA (control) ES cells; SMYD5 precipitated with avidin-agarose beads; immunoblotting with anti-HP1α, anti-G9a and anti-SMYD5 antibodies

Row | binding | Substance
1 | binds | G9a (from UniProt Q9Z148 1-1263) (enzyme)
2 | binds | HP1α (from UniProt Q61686 1-191)
